# Measured values from PubChem BioAssay AID588590 (National Center for Advancing Translational Sciences (NCATS), 2011).
# Chains of the proteins cited; added tags and fusions are not shown. Lines headed by an entry give the natural chain unless they say otherwise; changes in a name come on top.
# UniProt Q9UNA4: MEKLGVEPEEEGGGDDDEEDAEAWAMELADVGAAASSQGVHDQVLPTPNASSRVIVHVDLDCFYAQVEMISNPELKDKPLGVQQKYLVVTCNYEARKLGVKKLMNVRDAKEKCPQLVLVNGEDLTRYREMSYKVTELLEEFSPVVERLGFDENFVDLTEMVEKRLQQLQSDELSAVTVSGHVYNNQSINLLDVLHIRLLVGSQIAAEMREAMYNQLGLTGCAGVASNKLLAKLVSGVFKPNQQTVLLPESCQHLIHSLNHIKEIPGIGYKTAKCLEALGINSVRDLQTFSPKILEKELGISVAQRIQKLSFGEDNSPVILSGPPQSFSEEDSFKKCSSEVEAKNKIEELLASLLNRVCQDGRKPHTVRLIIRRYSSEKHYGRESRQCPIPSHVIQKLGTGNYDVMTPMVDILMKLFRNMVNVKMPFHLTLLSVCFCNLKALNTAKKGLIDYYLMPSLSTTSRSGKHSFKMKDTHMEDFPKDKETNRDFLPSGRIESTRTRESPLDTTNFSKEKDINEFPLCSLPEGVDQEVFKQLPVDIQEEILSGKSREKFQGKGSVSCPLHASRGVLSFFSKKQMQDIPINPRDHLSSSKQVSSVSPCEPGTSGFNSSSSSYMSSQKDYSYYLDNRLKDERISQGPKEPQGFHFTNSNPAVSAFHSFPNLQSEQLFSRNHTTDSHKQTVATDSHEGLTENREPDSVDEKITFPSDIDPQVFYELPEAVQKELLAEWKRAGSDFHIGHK
# About 4,000 (1%) of roughly 390,000 compounds were called active. The shares of active, inactive and inconclusive entries below differ from those in the screen. Calls follow the shape of the dose curve; as a rule, active = well fitted inhibition curve with a large enough effect; inconclusive = small, poorly fitted or top-dose-only effect, or another doubt; inactive = no such curve, though single readings can be large or run the other way. Potencies of inconclusive entries are doubtful fits and often do not repeat. More than one record can exist for a structure, and the calls need not agree.
# Biological target: DNA polymerase iota (Homo sapiens) (UniProt Q9UNA4)
# Assay: qHTS for Inhibitors of Polymerase Iota
# Settings: Pol iota fluorescent replication assay, 10 min; series mostly up to 115 µM
# Procedure, shortened: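 Fluorescent replication assay read twice, at 0 min and 10 min after adding 50 nM (final) substrate. Enzyme (10 nM) and compounds were first incubated 15 min at room temperature; enzyme-free buffer wells were negative controls.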
# Potency is read from the fitted curve at half-maximal effect.
row,Structure (SMILES),Potency
1,O=C(O)C(c1ccccc1)N1C(=O)/C(=C\c2ccc(-c3ccc(Br)cc3)o2)SC1=S (stereo unspecified),active: 11.2 µM
2,O=C(c1cc(COc2ccc(F)cc2F)on1)N1CCN(C(=O)c2ccco2)CC1,"inconclusive: 8.91 µM [inhibitor, partial curve, poor fit]"
3,CC(=O)c1c(C)[nH]c(C(=O)CN2CCN(S(=O)(=O)c3ccccc3[N+](=O)[O-])CC2)c1C,"inconclusive: 70.8 µM [inhibitor, partial curve]"
4,Cc1cc2c(cc1C)N[C@]1(C[C@H]3CCCC(=O)N4CC[C@@H](C1)[C@@H]34)C(=NCc1ccccc1)N2,inactive
5,O=C(CSc1nnc(CNC(=O)c2c(F)cccc2Cl)o1)Nc1ccccc1F,inactive
6,Cc1c(NS(=O)(=O)c2cccc(C(=O)O)c2)c(=O)n(-c2ccccc2)n1C,active: 50.1 µM
7,COc1ccccc1-c1c(C)nn2c(N3CCN(c4cccc(Cl)c4)CC3)cc(C)nc12,inactive
8,O=C(N/N=C\C=C\c1ccc(Br)cc1)c1ccc2c(c1)OCO2,"inconclusive: 12.6 µM [inhibitor, single point]"
9,O=C(C1=C(O)C(=O)N(CC2CCCO2)C1c1ccccc1)c1ccco1 (stereo unspecified),inactive
10,COc1ccc(C(=O)N/N=C/c2cc3ccccc3[nH]c2=S)cc1,"inconclusive: 14.1 µM [inhibitor, partial curve, poor fit]"
11,CCOc1cccc2sc(Nc3nc4ccc(NC(C)=O)cc4s3)nc12,"inconclusive: 100 µM [inhibitor, partial curve, poor fit]"
12,Fc1ccc(CN2CCN3CCCC3C2C2CCCCC2)cc1F (stereo unspecified),"inconclusive: 50.1 µM [inhibitor, partial curve, poor fit]"
13,Cc1ccc(SCC(=O)c2ccc(CC(=O)O)s2)cc1,"inconclusive: 20 µM [inhibitor, single point]"
14,Cc1ccc(C)c(NS(=O)(=O)c2ccc3c4c(cccc24)C(=O)N3)c1,"inconclusive: 0.708 µM [inhibitor, full curve, poor fit]"
15,C#CCN(Cc1ccc(OC)cc1)S(=O)(=O)C=C,inactive
16,O=[N+]([O-])/C(C(Cl)=C(Cl)Cl)=C(/NC1CC1)Sc1ccccc1,"inconclusive: 31.6 µM [inhibitor, single point]"
17,Nc1nc(NC(=O)c2ccco2)nn1-c1ccccc1,"inconclusive: 89.1 µM [inhibitor, partial curve, poor fit]"
18,COc1ccc(OC)c(Nc2nc3ccccc3n3c(C)nnc23)c1,inactive
19,Cc1cnc2ccc3ccccc3c2c1C,inactive
20,Cc1cc(OCC(=O)N2CCc3ccccc3C2)c2c(-c3ccccc3)cc(=O)oc2c1,"inconclusive: 56.2 µM [inhibitor, partial curve, poor fit]"
21,CCOC(=O)c1sc(NC(=O)c2ccc(=O)[nH]c2)nc1C,inactive

# An excerpt of these results, bar-delimited:
row | Structure (SMILES) | Potency
12 | Fc1ccc(CN2CCN3CCCC3C2C2CCCCC2)cc1F (stereo unspecified) | inconclusive: 50.1 µM [inhibitor, partial curve, poor fit]
13 | Cc1ccc(SCC(=O)c2ccc(CC(=O)O)s2)cc1 | inconclusive: 20 µM [inhibitor, single point]
14 | Cc1ccc(C)c(NS(=O)(=O)c2ccc3c4c(cccc24)C(=O)N3)c1 | inconclusive: 0.708 µM [inhibitor, full curve, poor fit]

# Next part

row,Structure (SMILES),Potency
1,Cc1ccc(SCc2[nH]nc3c2C(c2ccc(C)o2)C(C#N)=C(N)O3)cc1 (stereo unspecified),"inconclusive: 3.98 µM [inhibitor, full curve, poor fit]"
2,Cc1ccc2nc(C3CCCCC3)[nH]c2c1,inactive
3,CC1=NN(c2cc(Cl)c(S(=O)(=O)O)cc2Cl)C(=O)C1,"inconclusive: 3.98 µM [inhibitor, full curve, poor fit]"
4,COc1cccc(NC(=O)Cc2nnc(SCC(=O)NC3CCCCC3)n2C)c1,"inconclusive: 100 µM [inhibitor, single point]"
5,Cc1ccc(CNC(=O)c2cnc(N(C)C)nc2)cc1,inactive
6,Oc1ccc(/C=N/Nc2cc(N3CCCC3)nc(N3CCCC3)n2)cc1O,"inconclusive: 3.55 µM [inhibitor, full curve, poor fit]"
7,COc1ccc(N=C2NC(=O)/C(=C/c3ccc(O)c(OC)c3)S2)cc1,"inconclusive: 44.7 µM [inhibitor, partial curve, poor fit]"
8,CC(C)C[C@@H](CN)NC(=O)c1nc[nH]c1C(=O)N[C@@H](Cc1ccccc1)C(=O)CNC[C@H](C)NC(=O)c1nc[nH]c1C(=O)N[C@@H](C)C(=O)O,"inconclusive: 15.8 µM [inhibitor, partial curve, poor fit]"
9,Cc1ccc(NC(=O)CS(=O)(=O)c2nc(-c3ccc(C)cc3)cn2-c2ccc(C)cc2)cc1,"inconclusive: 70.8 µM [inhibitor, single point]"
10,FC(F)(F)c1ccccc1/C=N/n1c(COc2ccccc2)n[nH]c1=S,"inconclusive: 31.6 µM [inhibitor, single point]"
11,CC(=O)N1CCC(N(CCN2CCOCC2)C(=O)Nc2ccc(Cl)c(Cl)c2)CC1,"inconclusive: 22.4 µM [inhibitor, partial curve, poor fit]"
12,CCOc1ccccc1NC(=O)CN1C(=O)CC(c2ccco2)Sc2ccccc21 (stereo unspecified),"inconclusive: 79.4 µM [inhibitor, single point]"
13,CCN(CCCNC(=O)CN1C(=O)COc2ccc(S(=O)(=O)N3CCC(C)CC3)cc21)Cc1ccccc1,"inconclusive: 56.2 µM [inhibitor, partial curve, poor fit]"
14,COc1ccc(OCc2cn(CC(=O)c3ccc(O)cc3)nn2)cc1,"inconclusive: 0.708 µM [inhibitor, partial curve, poor fit]"
15,Cn1c(SCC(=O)c2cc3ccccc3o2)nnc1-c1ccccc1,"inconclusive: 31.6 µM [inhibitor, partial curve, poor fit]"
16,O[C@@H]([C@H](O)[C@H](O)CBr)[C@H](O)CBr,inactive
17,N#CC(=C1CCCC1)c1nc(-c2ccccc2O)cs1,"inconclusive: 14.1 µM [inhibitor, full curve, poor fit]"
18,O=c1[nH]c(Nc2ccc(F)cc2)cc2ccccc12,active: 7.08 µM
19,COc1ccc(N2CC(C(=O)NCCN3C(=O)S/C(=C\c4cccnc4)C3=O)CC2=O)c(OC)c1 (stereo unspecified),"inconclusive: 56.2 µM [inhibitor, partial curve, poor fit]"
20,CCN(C(=O)CSc1ncc(S(=O)(=O)c2ccc(C)c(Cl)c2)c(=O)[nH]1)c1cccc(C)c1,"inconclusive: 79.4 µM [inhibitor, single point]"
